# Among all 330,000 compounds or so, about 100 (0.03%) were called active. The call rests on the fitted dose curve; in most records, active means well fitted inhibition curve with a large enough effect; inconclusive means small, poorly fitted or top-dose-only effect; inactive means flat fitted curve, though single readings scatter. Inconclusive means that the source gave no clear call. Where the call is inconclusive, the potency comes from a doubtful curve fit.
# System: Chaperonin Mm-Cpn (Methanococcus maripaludis)
# Test: Inhibitors of TCP-1 ring complex (TRiC) of Methanococcus maripaludis (MmCpn): qHTS;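 further: enzyme at 25 nM with ATP substrate at 10 µM during the reaction; nearly all actives have a fitted effect of over 80% in size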
# Details: purified Mm-Cpn ATPase, ADP Transcreener TR-FRET; series mostly up to 76.9 µM
# Source text: The eukaryotic chaperonin TRiC (for TCP-1 ring complex) is an essential and conserved chaperone required for the folding and activation of 10-15% of the proteins encoded by the human genome. […] The TRiC complex consist of two stacked 7-9 membered rings, each containing a central cavity. Substrates are folded within the cavity in an ATP-dependent manner. TRiC is a complex of eight different, essential proteins. As each of the genes encoding the eight subunits is essential for cell viability and no protocol has been developed to over-express this enzyme to high levels. […] This assay applied the time resolved fluorescence resonance energy transfer (TR-FRET) principle. […]
# Purified Mm-CPN was supplied by the laboratory of Dr. Judith Frydman. […] Plates were read on the PerkinElmer EnVision plate reader using Excitation = 320 nm and Emission = […], 665 nm. Protocol- 1.Dispense 1.5ul per well of working [Mm-CPN] = 50nM (or 75 ng / well) 2.Spin plate at 1000 rpm for 30 seconds 3.23nl of compound transferred per well 4.Incubate at 37degC for 10 minutes 5.Dispense 1.5ul per well of working [ATP] = 20uM 6.Incubate at 37degC for 30 minutes 7.Dispense 3ul per well of Anti-ADP Cryptate / ADP-d2 mix (prepared as instructed by Cisbio) 8.Incubate at ambient for 30 minutes 9.Read using EnVision
# Potency means the concentration at half of the fitted maximal effect.
row,Compound,Potency
1,Cc1cc(N2C(=O)C(O)=C(C(=O)c3cc4ccccc4o3)C2c2cccc(Br)c2)no1 (stereo unspecified),"inconclusive: 1120 µM [inhibitor, partial curve, poor fit]"

# Source: PubChem BioAssay AID504842 (National Center for Advancing Translational Sciences (NCATS), 2011)
